Measured values reported in patent publication US8637461B2, “Method of diagnosing and treating oxidative stress-impaired wound healing” (Kuwait University, priority 2011, dated 2014).

Assay: Body weight and fasting plasma parameters in diabetic and hypercortisolemic rats
Type: in vivo, rat
Description: All animal procedures were performed in accordance with the NIH Guidance for the Care and Use of Laboratory Animals. The current study used, respectively the GK and Dexamethasone-treated rats as models for diabetes and hypercortisolemia. Dexamethasone was administered subcutaneously at a dose of 2.5 μg/kg body weight in the morning (8:00 AM) and in the evening (8:00 PM) for a duration of four weeks before wounding and this form of therapy continued during the course of healing. […] Weight and age-matched female Wistar rats (Kuwait University breeding colony) served as the corresponding controls. All of the animals were maintained under standard conditions with 12 hours on/off light cycle, commercial diet, and water ad libitum. GK rats destined for wounding were initially matched with regard to body weight (e.g., 230 to 250 g), and plasma levels of glucose, free fatty acids and insulin. These indices are commonly used to reflect the severity of the diabetic state.
Animals used for IGF-1 sensitivity (n=6/group) and wound healing (n=8) studies were partitioned into five study groups including control, diabetic, hypercortisolemic, diabetic+EUK and hypercortisolemic+EUK. The EUK-134 was administered for duration of four weeks before wound induction and it continued during the course of healing.

COc1cccc(C=NCCN=Cc2cccc(OC)c2[O-])c1[O-].[Cl-].[Mn+3] [EUK-134]
BW (body weight) (dexamethasone-treated (hypercortisolemic) rats + EUK-134 12.5 mg/kg ip every other day): 240 ± 15 g | BW (body weight) (diabetic (GK) rats + EUK-134 12.5 mg/kg ip every other day): 245 ± 17 g
